This passage reports binding results from paper PMC8262884.

These are yes or no findings as the source states them, for the method shown. Where a sequence is shown, tags or fusion partners need not be part of it.

The target of the experiment is MYC-tagged UDP-glucose pyrophosphorylase (UGP-MYC) (Trypanosoma brucei) (UniProt D3HTY9). Description: native gel or EMSA; BN-PAGE (3 to 12% Bis-Tris) of supernatants of UGP-MYC.i cells treated with 0 or 0.16 mg digitonin per mg protein; Western blot with anti-MYC. In general terms: A gel shift assay detects complexes by their altered migration in electrophoresis.

B1: MYC-tagged UDP-glucose pyrophosphorylase (UGP-MYC) (enzyme, UniProt D3HTY9 1-485)
chain: MPLNPPSAFSGAALACLEKMQASGVEEKCIHIFLIQHALVRKGETGYIPEKSISPVESLPFLQGIETKGENTALLRQAVVLKLNGGLGTGMGLNGPKSLLQVKNGQTFLDFTALQLEHFRQVRNCNVPFMLMNSFSTSGETKNFLRKYPTLYEVFDSDIELMQNRVPKIRQDNFFPVTYEADPTCEWVPPGHGDVYTVLYSSGKLDYLLGKGYRYMFISNGDNLGATLDVRLLDYMHEKQLGFLMEVCRRTESDKKGGHLAYKDVIDETTGQTRRRFVLRESAQCPKEDEDSFQNIAKHCFFNTNNIWINLMELKKMMDEQLGVLRLPVMRNPKTVNPQDSQSTKVYQLEVAMGAAISLFDRSEAVVVPRERFAPVKTCSDLLALRSDAYQVTEDQRLVLCEERNGKPPAIDLDGEHYKMIDGFEKLVKGGVPSLRQCTSLTVRGLVEFGADVSVRGNVVIKNLKEEPLIIGSGRVLDNEVVVVE
Turning to B1, the binding result is “no binding”.
